PubChem BioAssay AID504764 – Drosophila RNAi Screening Center, 2011

- Screen: 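Genome-wide screen for regulators of Notch-driven gene expression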 (primary screen)
- Cells: Drosophila Kc167 cells
- Reagents: long dsRNA against Drosophila genes
- Timing: about 5 days (4 days dsRNA, then 24 h after transfection)
- Conditions: transfection of constitutively active membrane-tethered Notch lacking the extracellular domain, read 24 h later
- Measured: 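Firefly luciferase from an E(spl)m3 reporter with active Notch, plus control-promoter and uninduced reporter wells for normalisation; unnormalised counts, duplicate wells a and b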
- Reading the numbers: induced reporter light, run 1, well a and induced reporter light, run 1, well b: higher = more light from the Notch target reporter with active Notch; control promoter light, run 1, well a and control promoter light, run 1, well b: higher = more light from the viral control promoter (cell number, transfection, viability); uninduced reporter light, run 1, well a: higher = more light from the Notch target reporter without active Notch
- Active means: 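Hit if the duplicate-averaged log2 ratio of induced to control-promoter light gives a plate-wise z beyond ±2, or induced to uninduced beyond ±1.8; weak-control or discordant-duplicate wells dropped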
- Calls: active = modifier hit (raised or lowered Notch signal); inactive = not a hit
The screen tested about 22,000 reagents; below is an unselected part of those that have a named target and a result. In the full data, 403 (1.9%) got an active call. 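Unnormalised raw counts per well; ratio z-scores behind the hit calls and whether each hit raises or lowers signal are not deposited.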 Names joined by + are all predicted targets of the reagent. Not given: the amount of reagent.

Gene | DRSC id | induced reporter light, run 1, well a | induced reporter light, run 1, well b | control promoter light, run 1, well a | control promoter light, run 1, well b | uninduced reporter light, run 1, well a | call
CG31371 | DRSC15079 | 1.10e5 | 1.05e5 | 1.97e5 | 1.85e5 | 11600 | inactive
CG17230 | DRSC15203 | 99725 | 1.15e5 | 58930 | 57075 | 6975 | inactive
Dscam1 | DRSC05047 | 31240 | 31850 | 42885 | 48150 | 2185 | inactive
Dscam1 | DRSC05048 | 36255 | 32855 | 46380 | 53575 | 2205 | inactive
Dscam1 | DRSC07407 | 1.53e5 | 1.57e5 | 2.45e5 | 1.94e5 | 15075 | inactive
CG32243 | DRSC08105 | 2.20e5 | 1.87e5 | 1.95e5 | 1.97e5 | 13320 | inactive
CG1239 | DRSC12204 | 1.33e5 | 1.70e5 | 95530 | 97495 | 11335 | inactive
CG11425 | DRSC11657 | 1.27e5 | 1.09e5 | 1.33e5 | 1.17e5 | 10310 | inactive
CG14015 | DRSC02346 | 1.96e5 | 1.96e5 | 2.39e5 | 2.45e5 | 11790 | inactive
Or19b + Or19a | DRSC22604 | – | – | – | – | – | inactive
Ubx | DRSC16891 | 3.17e5 | 2.85e5 | 2.42e5 | 2.65e5 | 19970 | inactive
D19B | DRSC11134 | 1.65e5 | 2.03e5 | 2.25e5 | 2.22e5 | 10205 | inactive
ND-49L | DRSC14437 | 1.41e5 | 1.32e5 | 1.55e5 | 1.73e5 | 11710 | inactive
Smn | DRSC10223 | 1.49e5 | 1.31e5 | 1.23e5 | 1.32e5 | 10890 | inactive
Dhps | DRSC10948 | 2.17e5 | 1.73e5 | 2.42e5 | 2.15e5 | 12190 | inactive
PGRP-LA | DRSC10327 | 2.04e5 | 1.57e5 | 3.34e5 | 3.12e5 | 12905 | inactive
PGRP-LA | DRSC10414 | 1.88e5 | 1.42e5 | 2.71e5 | 2.09e5 | 10910 | inactive
Or2a | DRSC18690 | 1.16e5 | 1.26e5 | 2.08e5 | 2.30e5 | 8610 | inactive
cher | DRSC16924 | 2.67e5 | 2.25e5 | 2.53e5 | 3.20e5 | 19995 | inactive
mex1 | DRSC11368 | 2.09e5 | 2.16e5 | 2.52e5 | 2.24e5 | 15735 | inactive
fabp + sea | DRSC16114 | 1.45e5 | 1.43e5 | 1.06e5 | 86175 | 10430 | inactive
fabp + sea | DRSC16115 | 1.53e5 | 1.57e5 | 1.20e5 | 1.04e5 | 10395 | inactive
CG9512 | DRSC20189 | 1.84e5 | 2.07e5 | 2.99e5 | 3.04e5 | 14545 | inactive
CG6006 | DRSC13137 | 1.21e5 | 1.37e5 | 1.73e5 | 1.45e5 | 10150 | inactive
CG6006 | DRSC15946 | 1.70e5 | 2.02e5 | 2.49e5 | 2.55e5 | 18065 | inactive
Spn53F | DRSC06022 | 1.44e5 | 1.07e5 | 1.06e5 | 1.29e5 | 9045 | inactive
CG13613 | DRSC14616 | 1.37e5 | 1.46e5 | 1.89e5 | 1.73e5 | 12710 | inactive
CG42457 (retired record) + cpo | DRSC13273 | 41620 | 36820 | 39910 | 37795 | 8915 | inactive
CG42457 (retired record) + cpo | DRSC14503 | 11295 | 11978 | 11480 | 11825 | 2415 | inactive
CG42457 (retired record) + cpo | DRSC15327 | 12010 | 10495 | 14460 | 13670 | 3045 | inactive
CG42457 (retired record) + cpo | DRSC16926 | 20560 | 14770 | 14430 | 14795 | 3250 | inactive
pths | DRSC03171 | 18965 | 12055 | 10310 | 8425 | 670 | inactive
CG32170 | DRSC09452 | 1.61e5 | 1.36e5 | 2.58e5 | 2.81e5 | 15950 | inactive
Tsp42Ed | DRSC05940 | 2.40e5 | 1.83e5 | 2.93e5 | 2.91e5 | 15270 | inactive
CG2336 | DRSC12581 | 80850 | 1.11e5 | 83575 | 64135 | 6965 | inactive
CG13625 | DRSC14627 | 1.73e5 | 1.60e5 | 1.82e5 | 2.08e5 | 10635 | inactive
hrg | DRSC07502 | 25320 | 28515 | 29055 | 28745 | 2830 | inactive
topi | DRSC16431 | 63345 | 79740 | 98365 | 63085 | 4960 | inactive
scny | DRSC10509 | 1.06e5 | 1.22e5 | 1.10e5 | 60565 | 13640 | inactive
scny | DRSC10510 | 40305 | 35415 | 47480 | 57020 | 7670 | inactive
Rbp6 | DRSC09462 | 2.23e5 | 2.45e5 | 3.10e5 | 2.71e5 | 23605 | inactive
Rbp6 | DRSC09464 | 2.26e5 | 2.12e5 | 2.46e5 | 2.54e5 | 20950 | inactive
Rbp6 | DRSC10072 | 2.03e5 | 1.82e5 | 2.76e5 | 2.14e5 | 11615 | inactive
Rbp6 | DRSC10073 | 2.21e5 | 1.87e5 | 2.49e5 | 2.40e5 | 11375 | inactive
Rbp6 | DRSC10662 | 1.29e5 | 1.34e5 | 2.19e5 | 1.93e5 | 7570 | inactive
CG8197 | DRSC07105 | 1.86e5 | 1.79e5 | 2.12e5 | 2.09e5 | 17530 | inactive
Nagk | DRSC15994 | 1.35e5 | 1.55e5 | 1.24e5 | 1.03e5 | 9895 | inactive
CG6380 | DRSC02950 | 1.40e5 | 1.31e5 | 1.27e5 | 1.17e5 | 10870 | inactive
CG12926 | DRSC06239 | 1.66e5 | 1.24e5 | 1.96e5 | 1.65e5 | 11995 | inactive
CG12926 | DRSC21930 | – | – | – | – | – | inactive
